Measurements: the supplement of paper PMC12823440, “Inhibitors supercharge kinase turnover through native proteolytic circuits” (Nature, 2025)
Counter-ions that a name gives are not always drawn. This is one part of the list. Hit calls seldom repeat between salt and free forms of one compound.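 Kinases were expressed as nanoluciferase fusions in K562 cells and luminescence was read every 4 h between 2 and 18 h as percent of control, DMSO set to 100% and a positive control to 0%. A time point counts as decreased when the signal drops significantly (2 sigma). The hit call is the authors' own, does not follow from the count of time points alone, and its rule is not shown.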

The chains behind the UniProt entries cited, without tags or fusion partners.
UniProt P21860, whole entry: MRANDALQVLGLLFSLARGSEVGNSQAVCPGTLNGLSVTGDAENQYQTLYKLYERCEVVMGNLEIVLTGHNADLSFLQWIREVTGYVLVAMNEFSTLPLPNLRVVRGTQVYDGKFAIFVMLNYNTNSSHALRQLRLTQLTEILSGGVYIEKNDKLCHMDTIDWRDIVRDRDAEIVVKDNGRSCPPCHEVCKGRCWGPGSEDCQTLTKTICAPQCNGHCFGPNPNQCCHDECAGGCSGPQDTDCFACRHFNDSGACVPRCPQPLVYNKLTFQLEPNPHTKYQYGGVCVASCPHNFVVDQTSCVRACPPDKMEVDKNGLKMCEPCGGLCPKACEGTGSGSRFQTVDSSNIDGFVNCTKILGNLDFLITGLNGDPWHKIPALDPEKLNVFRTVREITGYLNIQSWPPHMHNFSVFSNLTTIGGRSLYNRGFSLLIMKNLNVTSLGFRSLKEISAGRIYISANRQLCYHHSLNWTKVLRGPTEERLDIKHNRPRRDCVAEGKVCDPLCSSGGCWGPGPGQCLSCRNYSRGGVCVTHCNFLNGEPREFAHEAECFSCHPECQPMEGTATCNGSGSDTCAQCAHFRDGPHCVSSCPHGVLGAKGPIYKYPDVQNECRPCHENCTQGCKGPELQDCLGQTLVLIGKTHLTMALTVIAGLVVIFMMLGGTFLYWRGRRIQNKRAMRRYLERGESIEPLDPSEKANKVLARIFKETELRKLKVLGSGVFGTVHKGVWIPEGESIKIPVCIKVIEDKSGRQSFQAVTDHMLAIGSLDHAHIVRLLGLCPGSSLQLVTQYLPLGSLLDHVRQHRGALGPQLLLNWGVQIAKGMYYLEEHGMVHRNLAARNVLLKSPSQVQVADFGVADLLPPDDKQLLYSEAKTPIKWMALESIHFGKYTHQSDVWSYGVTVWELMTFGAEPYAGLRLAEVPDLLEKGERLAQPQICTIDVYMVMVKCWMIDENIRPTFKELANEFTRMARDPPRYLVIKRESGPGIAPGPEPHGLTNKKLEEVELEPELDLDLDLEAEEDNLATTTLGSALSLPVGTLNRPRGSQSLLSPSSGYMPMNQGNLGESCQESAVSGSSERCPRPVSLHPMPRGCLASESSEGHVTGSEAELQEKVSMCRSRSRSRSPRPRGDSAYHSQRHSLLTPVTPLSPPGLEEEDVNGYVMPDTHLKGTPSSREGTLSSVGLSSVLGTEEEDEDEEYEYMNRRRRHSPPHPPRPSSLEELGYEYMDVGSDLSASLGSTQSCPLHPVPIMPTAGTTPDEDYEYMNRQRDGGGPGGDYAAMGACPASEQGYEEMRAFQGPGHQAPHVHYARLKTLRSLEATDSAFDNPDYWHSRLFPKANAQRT
UniProt Q15303, whole entry R711C: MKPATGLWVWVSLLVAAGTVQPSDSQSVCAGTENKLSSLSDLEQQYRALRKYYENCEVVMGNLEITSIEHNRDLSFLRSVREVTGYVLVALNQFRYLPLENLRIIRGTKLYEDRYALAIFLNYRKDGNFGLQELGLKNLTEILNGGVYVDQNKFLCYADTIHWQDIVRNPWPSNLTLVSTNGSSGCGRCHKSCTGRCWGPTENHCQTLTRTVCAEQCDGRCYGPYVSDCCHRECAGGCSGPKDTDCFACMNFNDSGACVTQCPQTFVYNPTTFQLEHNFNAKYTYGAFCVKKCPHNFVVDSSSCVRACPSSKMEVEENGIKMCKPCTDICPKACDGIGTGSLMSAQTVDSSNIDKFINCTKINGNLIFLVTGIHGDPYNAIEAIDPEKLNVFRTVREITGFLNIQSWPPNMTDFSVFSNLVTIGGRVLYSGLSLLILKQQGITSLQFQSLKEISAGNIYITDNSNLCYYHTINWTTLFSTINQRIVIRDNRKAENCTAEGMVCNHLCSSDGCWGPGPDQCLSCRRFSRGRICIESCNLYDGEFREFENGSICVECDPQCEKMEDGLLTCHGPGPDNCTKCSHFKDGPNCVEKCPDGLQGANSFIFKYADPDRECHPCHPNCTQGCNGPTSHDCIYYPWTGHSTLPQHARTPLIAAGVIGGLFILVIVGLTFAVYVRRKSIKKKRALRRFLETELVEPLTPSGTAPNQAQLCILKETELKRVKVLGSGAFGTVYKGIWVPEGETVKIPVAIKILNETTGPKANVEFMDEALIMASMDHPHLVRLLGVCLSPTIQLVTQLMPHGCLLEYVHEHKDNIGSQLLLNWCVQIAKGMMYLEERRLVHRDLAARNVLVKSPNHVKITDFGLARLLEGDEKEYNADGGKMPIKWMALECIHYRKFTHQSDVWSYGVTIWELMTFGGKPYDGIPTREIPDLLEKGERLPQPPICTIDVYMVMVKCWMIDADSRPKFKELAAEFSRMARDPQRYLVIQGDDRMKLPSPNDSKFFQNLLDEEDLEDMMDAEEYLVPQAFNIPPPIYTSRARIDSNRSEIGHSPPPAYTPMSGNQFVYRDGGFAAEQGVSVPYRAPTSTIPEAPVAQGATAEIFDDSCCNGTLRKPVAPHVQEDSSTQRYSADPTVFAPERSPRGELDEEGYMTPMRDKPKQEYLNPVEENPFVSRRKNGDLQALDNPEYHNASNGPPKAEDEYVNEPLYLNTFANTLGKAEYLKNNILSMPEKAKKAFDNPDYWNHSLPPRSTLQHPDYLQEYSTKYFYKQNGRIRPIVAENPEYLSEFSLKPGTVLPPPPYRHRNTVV

molecular target: ERBB3 (UniProt P21860); assay: kinase-Nluc reporter destabilization hit call (1 = scored as downregulated) (binary); higher = compound decreases kinase abundance; conditions: K562; 2-18 h

kinase-Nluc reporter destabilization hit call, inactive:
O=S(=O)(NCCNC/C=C/c1ccc(Br)cc1)c1cccc2cnccc12 [H-89 (dihydrochloride)] (10 µM) 0, COc1cc2ncn(-c3cc(OCc4ccccc4C(F)(F)F)c(C(N)=O)s3)c2cc1OC (10 µM) 0, CCn1cc(-c2ccnc3[nH]c(-c4cccc(CN(C)C)c4)cc23)c(-c2ccc(NC(=O)N(C)C)cc2)n1 (2.5 µM) 0, O=C1c2ccccc2-c2n[nH]c3cccc1c23 (10 µM) 0, C[C@]1(O)C[C@@H](c2nc(-c3ccc4ccc(-c5ccccc5)nc4c3)c3c(N)nccn32)C1 [Linsitinib] (2.5 µM) 0, C[C@H](CN(C)C)Oc1nc(Nc2cc3cccc(Cl)c3cn2)cnc1C#N (10 µM) 0, Cc1cc(C)c(/C=C2\C(=O)Nc3ccccc32)[nH]1 [Semaxinib] (10 µM) 0, Cc1cccc(Cn2nc(C3CC3)c3c(NC(=O)c4cnc5cc(OCCN6CCN(C)CC6)ccn45)cccc32)n1 (10 µM) 0, COc1cc(OC)cc(-c2cc3cnc(N)nc3nc2NC(=O)NC(C)(C)C)c1 (10 µM) 0, CN(c1ncccc1CNc1nc(Nc2ccc3c(c2)CC(=O)N3)ncc1C(F)(F)F)S(C)(=O)=O (2.5 µM) 0, COc1ccc2c(C(=O)Nc3ccc(NC(=O)c4nn(C5CCN(C(=O)CC(C)(C)C#N)CC5)c5ccc(F)cc45)cc3Cl)cnn2c1 [Src Inhibitor 3] (2.5 µM) 0, Oc1ccc(-c2nc(-c3ccc(F)cc3)c(-c3ccncc3)[nH]2)cc1 (2.5 µM) 0, COc1cc(Nc2ncc3c(n2)-c2ccc(Cl)cc2C(c2c(F)cccc2OC)=NC3)ccc1C(=O)O [Alisertib] (2.5 µM) 0, O=c1c(-c2ccc(O)cc2)coc2cc(O)cc(O)c12 [Genistein] (10 µM) 0, CN1CCN(c2ccc(C(=O)Nc3n[nH]c4ccc(Cc5cc(F)cc(F)c5)cc34)c(NC3CCOCC3)c2)CC1 [Entrectinib] (2.5 µM) 0, CCN1CCN(Cc2ccc(C(=O)Nc3ccc(C)c(Oc4ccc5c(c4)CC(=O)N5)c3)cc2C(F)(F)F)CC1 (2.5 µM) 0

molecular target: ERBB4_R711C (clone: ERBB4_mut) (UniProt Q15303); assay: as above; conditions: K562; 2-18 h

kinase-Nluc reporter destabilization hit call, inactive:
CC(C)(C)n1nc(Cc2cccc3ccccc23)c2c(N)ncnc21 (10 µM) 0, CC1(C)CC=C(c2nc(C3CC(C)(C)OC(C)(C)C3)ccc2NC(=O)c2nc(C#N)c[nH]2)CC1 [Edicotinib] (2.5 µM) 0, CC(C)CC(=O)Nc1n[nH]c2c1CN(C(=O)C1CCN(C)CC1)C2(C)C (2.5 µM) 0, Nc1ncnc2c1c(-c1ccc(Oc3ccccc3)cc1)cn2C1CCCC1 (2.5 µM) 0, CC(=O)NCC(=O)N1[C@@H]2CC[C@H]1c1ccc(Nc3ncc(C(F)(F)F)c(NC4CCC4)n3)cc12 (2.5 µM) 0, Cc1nc(-c2cnc(NC(C)C)n(C)c2=O)ccc1Oc1ccnc(-c2cnn(C)c2)c1 (2.5 µM) 0, CN(C)C(=O)/C(C#N)=C/c1ccc(-c2nc3cnc4[nH]ccc4c3n2C2CCCCC2)o1 (10 µM) 0, CCCS(=O)(=O)Nc1ccc(F)c(C(=O)c2c[nH]c3ncc(Cl)cc23)c1F (10 µM) 0, COc1ccc2c(NC(=O)Nc3cccc(C(F)(F)F)n3)ccnc2c1 (10 µM) 0, CNC(=O)c1cccc(-c2ccc3c(N4CCOC[C@@H]4C)nc(N4CCOC[C@@H]4C)nc3n2)c1 [Vistusertib] (2.5 µM) 0, COCCNCCc1cccc(Nc2ncc3c(n2)-c2ccccc2[C@H](c2ccccc2F)C3)c1 [Derazantinib] (2.5 µM) 0, CNC(=O)c1ccccc1Nc1nc(Nc2ccc(N3CCOCC3)cc2OC)ncc1Cl (2.5 µM) 0, Cc1c(C(=O)N2CCOc3ccc(-c4ccc(N)nc4)cc3C2)ccc(S(C)(=O)=O)c1F (10 µM) 0, Cc1ccc(NC(=O)Nc2nnc(Sc3ncnc4cc(OCCCN5CCOCC5)ccc34)s2)cc1 (10 µM) 0, N#CC(=Cc1ccc(O)c(O)c1)C(=O)NCc1ccccc1 (mixture of isomers) (10 µM) 0, COc1ccc(COc2ccc(Cc3cnc(N)nc3N)cc2OC)cc1 (10 µM) 0, CC(=O)N1CCN(c2ccc(OCC3COC(Cn4ccnc4)(c4ccc(Cl)cc4Cl)O3)cc2)CC1 (stereo unspecified) [Ketoconazole] (2.5 µM) 0, Cc1ccc(F)c(NC(=O)Nc2ccc(-c3cccc4[nH]nc(N)c34)cc2)c1 [Linifanib] (2.5 µM) 0, NC(=O)c1ccc2nc(-c3ccc(Oc4ccc(Cl)cc4)cc3)[nH]c2c1 (10 µM) 0, CNc1nc(-c2ccc3c(N)n[nH]c3c2)cc(N2C[C@@H](C(=O)NC3CCCCC3)CC[C@H]2C)n1 (10 µM) 0, Cc1nc(N)sc1-c1ccnc(Nc2ccc(N3CCOCC3)cc2)n1 (10 µM) 0, O=c1oc2ccccc2c(O)c1Cc1c(O)c2ccccc2oc1=O [Dicoumarol] (10 µM) 0, CCc1nc(-c2cccc(C)c2)c(-c2ccnc(NC(=O)c3ccccc3)c2)s1 (10 µM) 0, CC(C)(C)c1cc(NC(=O)Nc2ccc(-c3cn4c(n3)sc3cc(OCCN5CCOCC5)ccc34)cc2)no1 [Quizartinib] (10 µM) 0, O=S(=O)(NCCNC/C=C/c1ccc(Br)cc1)c1cccc2cnccc12 [H-89 (dihydrochloride)] (10 µM) 0, COc1cc2ncn(-c3cc(OCc4ccccc4C(F)(F)F)c(C(N)=O)s3)c2cc1OC (10 µM) 0, CCn1cc(-c2ccnc3[nH]c(-c4cccc(CN(C)C)c4)cc23)c(-c2ccc(NC(=O)N(C)C)cc2)n1 (2.5 µM) 0, O=C1c2ccccc2-c2n[nH]c3cccc1c23 (10 µM) 0, C[C@]1(O)C[C@@H](c2nc(-c3ccc4ccc(-c5ccccc5)nc4c3)c3c(N)nccn32)C1 [Linsitinib] (2.5 µM) 0, C[C@H](CN(C)C)Oc1nc(Nc2cc3cccc(Cl)c3cn2)cnc1C#N (10 µM) 0, Cc1cc(C)c(/C=C2\C(=O)Nc3ccccc32)[nH]1 [Semaxinib] (10 µM) 0, Cc1cccc(Cn2nc(C3CC3)c3c(NC(=O)c4cnc5cc(OCCN6CCN(C)CC6)ccn45)cccc32)n1 (10 µM) 0, COc1cc(OC)cc(-c2cc3cnc(N)nc3nc2NC(=O)NC(C)(C)C)c1 (10 µM) 0, CN(c1ncccc1CNc1nc(Nc2ccc3c(c2)CC(=O)N3)ncc1C(F)(F)F)S(C)(=O)=O (2.5 µM) 0, COc1ccc2c(C(=O)Nc3ccc(NC(=O)c4nn(C5CCN(C(=O)CC(C)(C)C#N)CC5)c5ccc(F)cc45)cc3Cl)cnn2c1 [Src Inhibitor 3] (2.5 µM) 0, Oc1ccc(-c2nc(-c3ccc(F)cc3)c(-c3ccncc3)[nH]2)cc1 (2.5 µM) 0, COc1cc(Nc2ncc3c(n2)-c2ccc(Cl)cc2C(c2c(F)cccc2OC)=NC3)ccc1C(=O)O [Alisertib] (2.5 µM) 0, O=c1c(-c2ccc(O)cc2)coc2cc(O)cc(O)c12 [Genistein] (10 µM) 0, CN1CCN(c2ccc(C(=O)Nc3n[nH]c4ccc(Cc5cc(F)cc(F)c5)cc34)c(NC3CCOCC3)c2)CC1 [Entrectinib] (2.5 µM) 0, CCN1CCN(Cc2ccc(C(=O)Nc3ccc(C)c(Oc4ccc5c(c4)CC(=O)N5)c3)cc2C(F)(F)F)CC1 (2.5 µM) 0
